Data as given in publication PMC6624373.
These are yes or no findings as the source states them, for the method shown. Binding seen in cells or lysates may run through a third protein. Some binding calls cover weakened binding; strength is not graded here.

By UniProt entry, the sequences of proteins in these tests, tags left out. Residues count along the entry.
UniProt P48679, residues 1-647: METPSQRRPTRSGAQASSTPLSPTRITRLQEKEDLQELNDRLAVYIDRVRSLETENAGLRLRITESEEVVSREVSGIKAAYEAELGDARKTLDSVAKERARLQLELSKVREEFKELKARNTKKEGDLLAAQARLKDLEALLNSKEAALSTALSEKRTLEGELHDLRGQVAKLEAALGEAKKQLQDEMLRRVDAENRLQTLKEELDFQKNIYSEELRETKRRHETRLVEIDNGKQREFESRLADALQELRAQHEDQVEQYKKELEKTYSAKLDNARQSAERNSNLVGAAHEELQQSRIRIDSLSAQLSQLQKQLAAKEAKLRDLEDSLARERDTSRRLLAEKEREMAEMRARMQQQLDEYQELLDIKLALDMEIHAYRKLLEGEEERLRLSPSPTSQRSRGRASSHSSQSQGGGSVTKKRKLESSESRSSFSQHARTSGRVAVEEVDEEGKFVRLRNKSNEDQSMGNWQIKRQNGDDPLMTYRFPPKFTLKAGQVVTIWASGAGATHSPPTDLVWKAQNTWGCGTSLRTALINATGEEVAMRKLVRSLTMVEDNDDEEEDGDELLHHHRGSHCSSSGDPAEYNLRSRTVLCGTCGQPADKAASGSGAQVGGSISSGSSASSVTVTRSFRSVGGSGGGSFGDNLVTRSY

Target: lamin A of rat liver nuclear envelopes (rat) (UniProt P48679)
Assay: cross-linking; ex vivo: rat liver nuclear envelopes in NaPi buffer, EDC/S-NHS 1:2.2 at twofold and fourfold weight excess over protein, 30 min; Western blot and LC-MS/MS

Substance: lamin A of rat liver nuclear envelopes (from UniProt P48679 1-647)
- binding: binds
